# Measurements from the supplement of paper PMC12819154, “High-throughput peptide-centric local stability assay extends protein–ligand identification to membrane proteins, tissues and bacteria” (Nature Structural & Molecular Biology, 2025).
# Amino acid sequences for entries named in this document (tags omitted). A change or cut given only in a name is not applied to a line headed by its entry.
# UniProt Q9QWY8: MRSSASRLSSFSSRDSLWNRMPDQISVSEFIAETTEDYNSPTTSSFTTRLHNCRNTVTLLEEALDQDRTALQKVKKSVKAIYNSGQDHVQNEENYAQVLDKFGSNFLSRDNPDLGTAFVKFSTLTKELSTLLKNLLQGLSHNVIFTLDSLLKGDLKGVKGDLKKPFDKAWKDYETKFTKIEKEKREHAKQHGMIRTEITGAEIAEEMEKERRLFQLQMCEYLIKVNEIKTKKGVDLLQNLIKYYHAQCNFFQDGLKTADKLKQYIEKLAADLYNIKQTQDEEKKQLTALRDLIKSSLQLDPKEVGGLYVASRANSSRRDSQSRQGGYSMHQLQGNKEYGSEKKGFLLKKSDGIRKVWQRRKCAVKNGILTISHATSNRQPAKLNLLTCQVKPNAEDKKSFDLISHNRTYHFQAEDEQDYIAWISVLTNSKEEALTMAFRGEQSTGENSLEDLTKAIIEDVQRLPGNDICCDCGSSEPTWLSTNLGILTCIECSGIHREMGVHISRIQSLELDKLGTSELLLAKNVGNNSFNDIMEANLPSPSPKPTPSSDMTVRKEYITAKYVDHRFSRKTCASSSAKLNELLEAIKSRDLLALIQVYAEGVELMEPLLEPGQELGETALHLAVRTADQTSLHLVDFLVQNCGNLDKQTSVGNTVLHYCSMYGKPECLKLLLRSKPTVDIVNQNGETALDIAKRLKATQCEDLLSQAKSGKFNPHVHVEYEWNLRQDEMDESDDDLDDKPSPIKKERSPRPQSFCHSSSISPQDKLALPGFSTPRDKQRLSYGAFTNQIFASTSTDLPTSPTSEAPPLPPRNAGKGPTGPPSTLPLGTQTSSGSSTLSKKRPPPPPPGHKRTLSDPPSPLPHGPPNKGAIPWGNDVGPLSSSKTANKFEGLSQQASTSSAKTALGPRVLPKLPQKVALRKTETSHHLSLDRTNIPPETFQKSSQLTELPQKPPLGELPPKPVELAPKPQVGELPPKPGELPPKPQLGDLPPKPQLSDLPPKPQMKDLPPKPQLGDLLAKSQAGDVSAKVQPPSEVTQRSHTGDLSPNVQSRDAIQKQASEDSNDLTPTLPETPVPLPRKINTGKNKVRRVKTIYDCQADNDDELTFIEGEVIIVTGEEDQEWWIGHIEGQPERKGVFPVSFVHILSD
# UniProt Q9QUI6: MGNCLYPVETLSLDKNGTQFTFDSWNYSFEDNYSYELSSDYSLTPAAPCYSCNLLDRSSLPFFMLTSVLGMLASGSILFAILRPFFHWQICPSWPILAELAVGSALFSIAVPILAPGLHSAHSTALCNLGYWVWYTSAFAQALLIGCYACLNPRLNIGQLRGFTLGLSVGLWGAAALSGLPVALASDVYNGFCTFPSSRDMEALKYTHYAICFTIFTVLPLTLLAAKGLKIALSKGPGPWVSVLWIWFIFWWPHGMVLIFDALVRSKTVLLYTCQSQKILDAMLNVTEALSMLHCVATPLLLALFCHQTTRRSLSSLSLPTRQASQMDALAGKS
# UniProt Q9JIG7, whole entry: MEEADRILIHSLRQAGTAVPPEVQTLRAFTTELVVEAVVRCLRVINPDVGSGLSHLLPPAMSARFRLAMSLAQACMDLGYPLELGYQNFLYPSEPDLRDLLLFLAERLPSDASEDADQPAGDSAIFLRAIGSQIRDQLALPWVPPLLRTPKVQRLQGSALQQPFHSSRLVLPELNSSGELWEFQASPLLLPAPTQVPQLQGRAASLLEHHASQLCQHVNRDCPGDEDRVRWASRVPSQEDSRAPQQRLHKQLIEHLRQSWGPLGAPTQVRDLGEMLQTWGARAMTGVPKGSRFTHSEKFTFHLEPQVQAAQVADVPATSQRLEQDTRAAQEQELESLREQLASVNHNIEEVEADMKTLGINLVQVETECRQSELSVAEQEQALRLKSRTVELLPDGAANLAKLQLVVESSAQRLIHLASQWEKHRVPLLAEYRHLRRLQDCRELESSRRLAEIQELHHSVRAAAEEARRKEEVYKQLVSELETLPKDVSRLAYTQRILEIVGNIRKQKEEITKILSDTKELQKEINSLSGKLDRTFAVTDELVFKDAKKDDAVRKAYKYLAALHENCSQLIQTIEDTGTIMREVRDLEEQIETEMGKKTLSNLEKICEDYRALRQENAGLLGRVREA
# UniProt Q9QXA5: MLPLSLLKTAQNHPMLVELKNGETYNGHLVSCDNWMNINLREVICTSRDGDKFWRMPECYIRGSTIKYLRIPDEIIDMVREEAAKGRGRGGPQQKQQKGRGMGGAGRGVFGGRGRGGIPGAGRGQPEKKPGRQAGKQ
# UniProt Q9JK38: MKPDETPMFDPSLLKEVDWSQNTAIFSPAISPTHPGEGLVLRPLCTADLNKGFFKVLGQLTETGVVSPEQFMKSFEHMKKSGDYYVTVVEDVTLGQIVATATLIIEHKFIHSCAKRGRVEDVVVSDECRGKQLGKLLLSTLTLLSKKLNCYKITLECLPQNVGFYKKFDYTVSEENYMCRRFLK
# Some of the results follow. Small differences around the control level are noise.
# Compound: CN[C@@H]1C[C@H]2O[C@@](C)([C@@H]1OC)n1c3ccccc3c3c4c(c5c6ccccc6n2c5c31)C(=O)NC4 [staurosporine]
# Assay: log2 fold change of tryptic peptide abundance, ligand vs vehicle (limited proteolysis) (log2 ratio); higher = more trypsin-susceptible (destabilized)
# Conditions: ligand concentration: 20 uM; sample: mouse liver crude lysate; replicate design: treated separately
row,Target,log2 fold change
1,"UniProt Q9QWY8 (peptide sequence: NGILTISHATSNR, peptide start residue: 366)",0.331
2,"UniProt Q9QUI6 (peptide sequence: QASQMDALAGKS, peptide start residue: 323)",-0.23
3,"UniProt Q9JIG7 (peptide sequence: LQGSALQQPFHSSR, peptide start residue: 155)",0.183
4,"UniProt Q9QXA5 (peptide sequence: DGDKFWR, peptide start residue: 49)",-0.256
5,"UniProt Q9JK38 (peptide sequence: KFDYTVSEENYMCRR, peptide start residue: 167)",-0.163
